Data published in paper PMC6028525.
These are yes or no findings as the source states them, for the method shown. In cells and extracts the contact can be indirect. These calls come from enrichment with a bait or labelling near it, and not all partners need be listed. For some of these results: Sequences can lack the tags named with a protein.

The chains behind the UniProt entries cited, without tags or fusion partners. Where a name states a change or a piece, a line headed by the entry shows the natural chain unless it says otherwise.
UniProt Q9VVM7: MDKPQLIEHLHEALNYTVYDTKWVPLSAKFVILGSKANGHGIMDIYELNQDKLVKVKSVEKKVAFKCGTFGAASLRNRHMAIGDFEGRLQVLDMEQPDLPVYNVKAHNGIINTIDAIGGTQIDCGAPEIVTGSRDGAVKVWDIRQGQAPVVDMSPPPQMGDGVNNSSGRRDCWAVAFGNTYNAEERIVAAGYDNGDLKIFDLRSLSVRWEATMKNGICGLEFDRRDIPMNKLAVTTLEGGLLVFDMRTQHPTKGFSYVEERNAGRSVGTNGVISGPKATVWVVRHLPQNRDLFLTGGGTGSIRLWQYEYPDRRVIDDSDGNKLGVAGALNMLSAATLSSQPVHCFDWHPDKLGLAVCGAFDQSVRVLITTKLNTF
UniProt E1JJ04: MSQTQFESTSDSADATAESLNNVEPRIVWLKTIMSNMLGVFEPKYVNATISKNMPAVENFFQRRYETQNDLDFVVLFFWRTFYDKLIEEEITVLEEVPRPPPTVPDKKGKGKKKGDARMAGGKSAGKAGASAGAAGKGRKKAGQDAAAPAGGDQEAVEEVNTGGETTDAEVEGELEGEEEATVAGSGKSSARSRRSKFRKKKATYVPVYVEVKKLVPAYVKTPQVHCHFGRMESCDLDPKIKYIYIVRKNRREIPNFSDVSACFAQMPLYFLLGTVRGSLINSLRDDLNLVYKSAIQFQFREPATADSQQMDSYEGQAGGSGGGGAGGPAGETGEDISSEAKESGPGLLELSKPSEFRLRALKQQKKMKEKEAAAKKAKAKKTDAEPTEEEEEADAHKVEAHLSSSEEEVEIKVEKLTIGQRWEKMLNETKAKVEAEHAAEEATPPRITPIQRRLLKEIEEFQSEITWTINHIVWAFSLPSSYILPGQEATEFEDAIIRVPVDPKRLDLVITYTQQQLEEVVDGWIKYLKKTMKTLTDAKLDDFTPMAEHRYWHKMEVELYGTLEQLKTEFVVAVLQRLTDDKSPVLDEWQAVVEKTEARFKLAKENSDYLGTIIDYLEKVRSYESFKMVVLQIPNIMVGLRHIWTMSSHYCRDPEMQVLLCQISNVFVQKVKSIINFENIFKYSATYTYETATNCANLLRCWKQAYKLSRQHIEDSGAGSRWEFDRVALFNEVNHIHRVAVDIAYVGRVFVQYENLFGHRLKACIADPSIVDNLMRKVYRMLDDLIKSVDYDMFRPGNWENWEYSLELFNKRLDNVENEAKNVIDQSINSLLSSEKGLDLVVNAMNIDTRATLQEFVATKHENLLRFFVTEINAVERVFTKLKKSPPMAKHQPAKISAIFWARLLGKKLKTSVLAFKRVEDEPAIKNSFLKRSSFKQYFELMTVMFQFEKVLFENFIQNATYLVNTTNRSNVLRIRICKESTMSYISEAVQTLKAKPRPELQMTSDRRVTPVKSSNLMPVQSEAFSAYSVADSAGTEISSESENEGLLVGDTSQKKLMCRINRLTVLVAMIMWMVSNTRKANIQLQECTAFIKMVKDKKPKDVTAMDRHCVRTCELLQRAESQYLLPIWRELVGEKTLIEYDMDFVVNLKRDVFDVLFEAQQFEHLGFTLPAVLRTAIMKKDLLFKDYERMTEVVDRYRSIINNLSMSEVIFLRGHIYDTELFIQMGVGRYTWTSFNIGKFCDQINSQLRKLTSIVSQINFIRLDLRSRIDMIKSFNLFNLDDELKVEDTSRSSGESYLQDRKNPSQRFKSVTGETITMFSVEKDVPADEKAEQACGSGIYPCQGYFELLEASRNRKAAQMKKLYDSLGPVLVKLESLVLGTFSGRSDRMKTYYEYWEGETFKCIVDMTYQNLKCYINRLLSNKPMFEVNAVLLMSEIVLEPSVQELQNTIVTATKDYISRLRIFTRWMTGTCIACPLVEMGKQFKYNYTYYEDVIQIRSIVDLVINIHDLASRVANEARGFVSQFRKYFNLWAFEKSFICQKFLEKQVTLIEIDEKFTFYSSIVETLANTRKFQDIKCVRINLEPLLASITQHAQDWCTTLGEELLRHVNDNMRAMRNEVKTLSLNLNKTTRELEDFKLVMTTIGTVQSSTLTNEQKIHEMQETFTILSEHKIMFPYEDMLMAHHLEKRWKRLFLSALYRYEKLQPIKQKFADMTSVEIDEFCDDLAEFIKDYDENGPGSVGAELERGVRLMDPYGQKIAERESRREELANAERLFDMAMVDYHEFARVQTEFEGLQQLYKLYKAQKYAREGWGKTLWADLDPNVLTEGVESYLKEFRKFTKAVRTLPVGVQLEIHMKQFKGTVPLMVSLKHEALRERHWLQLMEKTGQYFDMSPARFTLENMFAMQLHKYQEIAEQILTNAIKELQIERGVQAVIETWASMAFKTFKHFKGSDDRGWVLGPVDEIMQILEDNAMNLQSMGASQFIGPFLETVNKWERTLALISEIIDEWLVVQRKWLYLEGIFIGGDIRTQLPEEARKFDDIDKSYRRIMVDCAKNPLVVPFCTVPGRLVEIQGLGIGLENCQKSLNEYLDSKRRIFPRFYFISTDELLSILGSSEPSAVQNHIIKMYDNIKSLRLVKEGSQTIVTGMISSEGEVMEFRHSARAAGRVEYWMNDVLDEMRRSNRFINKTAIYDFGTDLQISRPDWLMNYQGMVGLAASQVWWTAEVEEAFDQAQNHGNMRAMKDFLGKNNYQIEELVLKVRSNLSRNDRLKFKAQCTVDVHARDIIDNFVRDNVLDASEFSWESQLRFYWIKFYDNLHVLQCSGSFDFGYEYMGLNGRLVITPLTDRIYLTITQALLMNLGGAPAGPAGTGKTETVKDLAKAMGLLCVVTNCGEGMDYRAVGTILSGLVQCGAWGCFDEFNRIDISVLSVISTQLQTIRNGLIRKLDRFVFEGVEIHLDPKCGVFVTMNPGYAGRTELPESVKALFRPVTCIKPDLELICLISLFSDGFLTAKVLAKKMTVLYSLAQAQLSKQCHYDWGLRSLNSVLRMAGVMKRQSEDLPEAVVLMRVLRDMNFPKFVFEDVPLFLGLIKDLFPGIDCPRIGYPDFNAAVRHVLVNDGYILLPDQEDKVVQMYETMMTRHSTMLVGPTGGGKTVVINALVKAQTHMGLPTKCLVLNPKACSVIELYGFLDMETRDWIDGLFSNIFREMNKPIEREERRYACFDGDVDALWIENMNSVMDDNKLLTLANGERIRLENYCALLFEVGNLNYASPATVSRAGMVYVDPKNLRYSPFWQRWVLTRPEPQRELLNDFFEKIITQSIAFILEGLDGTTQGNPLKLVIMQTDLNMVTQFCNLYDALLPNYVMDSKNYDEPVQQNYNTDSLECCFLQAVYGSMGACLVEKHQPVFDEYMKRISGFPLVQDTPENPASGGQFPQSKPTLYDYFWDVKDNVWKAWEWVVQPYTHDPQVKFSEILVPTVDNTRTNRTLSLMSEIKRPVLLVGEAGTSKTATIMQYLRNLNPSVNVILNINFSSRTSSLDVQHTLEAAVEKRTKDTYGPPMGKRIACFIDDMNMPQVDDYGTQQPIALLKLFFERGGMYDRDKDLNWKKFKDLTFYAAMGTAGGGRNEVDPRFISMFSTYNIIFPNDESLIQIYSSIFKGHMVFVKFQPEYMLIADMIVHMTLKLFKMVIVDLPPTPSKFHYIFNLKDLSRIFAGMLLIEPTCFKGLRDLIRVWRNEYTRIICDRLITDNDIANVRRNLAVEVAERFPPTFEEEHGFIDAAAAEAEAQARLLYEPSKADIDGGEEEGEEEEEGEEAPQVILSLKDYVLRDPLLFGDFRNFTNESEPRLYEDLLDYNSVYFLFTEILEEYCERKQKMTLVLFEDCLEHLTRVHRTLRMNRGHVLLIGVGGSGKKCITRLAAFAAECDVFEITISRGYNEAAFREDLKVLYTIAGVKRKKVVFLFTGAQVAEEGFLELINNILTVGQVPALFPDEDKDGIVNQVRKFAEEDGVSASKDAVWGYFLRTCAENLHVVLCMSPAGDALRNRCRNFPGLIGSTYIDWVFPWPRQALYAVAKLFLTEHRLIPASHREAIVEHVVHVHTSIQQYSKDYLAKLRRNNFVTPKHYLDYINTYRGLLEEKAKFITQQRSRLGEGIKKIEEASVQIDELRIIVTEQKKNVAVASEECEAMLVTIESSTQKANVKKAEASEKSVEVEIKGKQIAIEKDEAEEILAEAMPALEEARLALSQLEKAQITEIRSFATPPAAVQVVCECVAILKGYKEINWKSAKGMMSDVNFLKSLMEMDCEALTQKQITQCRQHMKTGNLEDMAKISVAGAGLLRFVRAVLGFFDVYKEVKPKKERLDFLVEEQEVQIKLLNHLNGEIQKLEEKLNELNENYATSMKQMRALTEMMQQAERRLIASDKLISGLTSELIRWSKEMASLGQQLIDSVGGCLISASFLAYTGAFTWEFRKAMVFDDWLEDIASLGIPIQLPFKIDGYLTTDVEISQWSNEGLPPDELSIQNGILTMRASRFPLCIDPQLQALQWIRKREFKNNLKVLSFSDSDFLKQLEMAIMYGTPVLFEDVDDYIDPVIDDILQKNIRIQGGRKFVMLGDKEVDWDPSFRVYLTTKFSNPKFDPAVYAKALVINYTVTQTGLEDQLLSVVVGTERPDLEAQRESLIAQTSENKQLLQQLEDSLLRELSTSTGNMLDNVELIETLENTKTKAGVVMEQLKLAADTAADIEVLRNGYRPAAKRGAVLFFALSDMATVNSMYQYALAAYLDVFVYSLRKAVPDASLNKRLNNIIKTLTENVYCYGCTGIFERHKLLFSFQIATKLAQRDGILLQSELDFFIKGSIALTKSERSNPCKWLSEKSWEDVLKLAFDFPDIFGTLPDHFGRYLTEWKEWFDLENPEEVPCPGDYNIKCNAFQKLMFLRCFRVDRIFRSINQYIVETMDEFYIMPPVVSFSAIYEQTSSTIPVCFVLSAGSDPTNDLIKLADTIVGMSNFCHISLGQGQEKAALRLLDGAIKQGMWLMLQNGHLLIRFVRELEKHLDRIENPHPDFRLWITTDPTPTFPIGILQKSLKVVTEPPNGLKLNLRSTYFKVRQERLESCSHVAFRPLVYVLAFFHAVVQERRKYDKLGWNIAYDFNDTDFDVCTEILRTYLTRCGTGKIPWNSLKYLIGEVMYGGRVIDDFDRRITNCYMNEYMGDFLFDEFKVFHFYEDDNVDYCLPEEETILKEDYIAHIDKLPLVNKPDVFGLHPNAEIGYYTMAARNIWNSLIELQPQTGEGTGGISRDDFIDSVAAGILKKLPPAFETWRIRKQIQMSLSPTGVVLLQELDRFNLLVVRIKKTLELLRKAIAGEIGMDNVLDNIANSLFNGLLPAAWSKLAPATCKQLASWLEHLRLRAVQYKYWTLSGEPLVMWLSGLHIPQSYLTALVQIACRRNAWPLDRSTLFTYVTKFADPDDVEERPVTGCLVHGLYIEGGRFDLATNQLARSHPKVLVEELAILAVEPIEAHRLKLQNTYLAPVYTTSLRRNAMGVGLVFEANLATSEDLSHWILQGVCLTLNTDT

T1: Spag1-mVenus fusion protein (Drosophila melanogaster) (UniProt Q9VBA1)
T1 sequence: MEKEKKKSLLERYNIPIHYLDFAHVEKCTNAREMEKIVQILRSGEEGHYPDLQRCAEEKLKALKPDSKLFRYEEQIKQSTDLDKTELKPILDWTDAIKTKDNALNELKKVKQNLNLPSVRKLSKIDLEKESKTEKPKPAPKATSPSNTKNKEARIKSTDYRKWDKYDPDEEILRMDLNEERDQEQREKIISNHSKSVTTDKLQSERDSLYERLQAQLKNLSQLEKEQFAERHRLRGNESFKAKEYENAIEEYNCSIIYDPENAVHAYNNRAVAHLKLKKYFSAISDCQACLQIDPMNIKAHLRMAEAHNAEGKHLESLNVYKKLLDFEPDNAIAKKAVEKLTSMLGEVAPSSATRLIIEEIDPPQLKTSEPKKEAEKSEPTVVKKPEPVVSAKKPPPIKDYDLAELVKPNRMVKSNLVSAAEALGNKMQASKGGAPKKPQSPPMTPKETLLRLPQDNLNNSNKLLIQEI


Key:
[1] = biological target: Wdr92-mVenus fusion protein (Drosophila melanogaster) (UniProt Q9VVM7); test: affinity purification with mass spectrometry; GFP-Trap_A beads on lysates of adult testes of Wdr92-mVenus or Spag1-mVenus males, 3 h at 4°C; lysis buffer 50 mM Tris-HCl pH 7.5, 100 mM NaCl, 10% glycerol, 5 mM EDTA, 0.15% Triton X-100, 0.5% sodium deoxycholate; control Gap43-mVenus testes; on-bead digest, label-free quantification
[2] = biological target: T1, Spag1-mVenus fusion protein (Drosophila melanogaster); test: as above

binding [1] | binding [2] | Molecule
binds | binds | Dhc98D (from UniProt E1JJ04 1-5073)
– | binds | Wdr92
binds | – | dtr (protein, UniProt Q8INT5 1-1483) MSNSNRKEITGLNRMTPKGLKELCKKDKLYQTPRLNDVLYLHYQGFQCIESLEEYTELKCLWLECNAISEIQGLEKLSKLKCLFLQNNLITKIENLDPCRELDTLNLSSNHIRKIQNIGTNVLPVLNTLTISSNYLKDSESLSDLIQCKTLSVLDLSNNRIDDILIVKIFEQMLNLKVLVLQGNPVVSRLPQYRKTLILACKELTYLDSRPVFPRDRACAEAWKRDGYEGERKENNRWNRAERRKTRESINCTIRMRNSHRPPDQQDPLLRSSDSEDDTCAETARKKVALENGCVDDLWEEVSGEQPISEDGTNSSSSLEDNDGTSSQDDLIAEKLSNRRTLEGRPTVLYETEVSNVKSANNDINIFEEGVGKASQIIIEDKPVTKIKLINEPSCMNDKSAMNCTSMGPVVKENDFDEDAEIKNVDDMVPCQNLIKSNEDINSEFGFSSKLKQDFDQTCTALRNDAECKEFDEELTIKESESKPFNEMYDIFAAEDDKLNETLDLNLNETTCPHHVHDNFFSEQNKMPSFYEEDIMINLLPKTKEKTLLEKDSIIENEKCAHDLDEMGRQMEEDLAELRQSTQNLIGISIDETARTDSETDEEDLIAQQDPYSPLLKQQFKDRRMKIMLTEETKAQEESLSDRNIALSNESDQDDKQDQLFAKILDDATENIPKRIFGTGCDALSSVWPQEECLLQLTLPENKESPAQEDTFKKSITNSTSFEKANEICVRMDQKMAEEEEALGKLLHDLEGEINNVYDINTKVKYEENTSTNESDAVSICTSLLDDIIVGLTFDEVLCHEKPKSFEFGLIESDEEFSYSFEPKLEKLVPPALEDPARGKSLRECLDTFSDFVSSMADPKLPVMLGRNPTSGVEKIRAAQELLKTKNLSDLYKDTAESLNSQVAKEIEKRKRRVAASATRCFNQRDKYDDTLELVENRLMIVKKDSGDLEELPPPPPLISDTESEDDNPTEDNYTPGNEVHRHGTKTQDSKEHLMSNLLNQNQDDIIEGKKNDSAEDEFYSLEAMTTFGNLDAEFFQKLDLQKVNASEDSEPAINCMRSYNELQAYMKSGSLNTQLNSEEAEMLQTMCSRVASDVDKPKSQNSKEEEEDDLLKKMVLRMKEYEEREHQLQLISHETSSELGPIKLSIGGSKLFEQNTKIPESVLVHSENEPTRNNKPINTKNTNDKESSDIMEKNGDPSVTTSFKTSHKSIDDDIQSDVSTDYESGEEVVVVEPPTLSEAVLKSFYSDEFEADSKMVHELEEATRRNLRRYNPNIMHISTSNHPFSTNNILPTKTSTSELSEGAKAKWAKIAERLHEFLDPETIANLNKEQFGESDECEDSQDDNITDITVEETNLKKDTKLVVLEEYNNTHTCDGNSCPSKLDDSDQFASLKGFEKIKETPTHNMGLSSVMSASQNKTSETLPNEIGNKITDFSSFKTSSTDLINSEGVKTEQIQCNLQILSDEGDVVVEELSVNAQVSSFK
